Measurements: article PMC8673676
These are yes or no findings as the source states them, for the method shown. For part of these data: Binding seen in cells or lysates may run through a third protein. Some binding calls cover weakened binding; strength is not graded here. For part of these data: Tags and fused reporters may be left off the sequences shown.

Columns and labels:
[1] = target: T1, Booster for Crq (Bfc), yeast two-hybrid bait (Drosophila melanogaster) (UniProt Q9W0I5); experiment: two-hybrid; Bfc as bait, Srp as prey; AH109 yeast; dilutions grown on SD-Trp-Leu-His plates, 3 d at 30°C
T1 sequence: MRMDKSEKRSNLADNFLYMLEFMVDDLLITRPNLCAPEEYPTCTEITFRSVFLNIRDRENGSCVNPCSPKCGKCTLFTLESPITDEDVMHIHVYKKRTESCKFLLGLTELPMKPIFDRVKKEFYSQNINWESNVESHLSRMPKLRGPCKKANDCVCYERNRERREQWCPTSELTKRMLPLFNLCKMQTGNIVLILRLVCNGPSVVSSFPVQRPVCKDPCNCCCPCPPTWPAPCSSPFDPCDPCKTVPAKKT

[2] = target: T2, Bfc-Flag (Drosophila melanogaster) (UniProt Q9W0I5); experiment: co-IP; S2 cells co-transfected with Bfc-Flag and HA-Srp; lysis in 50 mM Tris-Cl pH 7.4, 1% Triton X-100, 0.15 M NaCl, 1 mM EDTA; anti-Flag M2 magnetic beads 2 h at 4°C; blots with anti-Flag and anti-HA
T2 sequence: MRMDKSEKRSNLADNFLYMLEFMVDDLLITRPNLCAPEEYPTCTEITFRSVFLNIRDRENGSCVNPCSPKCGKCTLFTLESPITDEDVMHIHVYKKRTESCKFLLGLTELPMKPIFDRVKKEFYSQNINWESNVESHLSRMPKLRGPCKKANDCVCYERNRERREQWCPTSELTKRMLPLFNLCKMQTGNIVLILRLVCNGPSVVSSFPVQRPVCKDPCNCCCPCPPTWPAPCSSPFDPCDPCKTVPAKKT

[3] = target: T3, GST-Srp (Drosophila melanogaster) (UniProt P52172); experiment: native gel or EMSA; purified GST-Srp bound to biotin-labelled crq promoter probe; supershift on addition of purified Bfc-6XHis (1, 2 and 4 μg); LightShift Chemiluminescent EMSA Kit; both purified
T3 sequence: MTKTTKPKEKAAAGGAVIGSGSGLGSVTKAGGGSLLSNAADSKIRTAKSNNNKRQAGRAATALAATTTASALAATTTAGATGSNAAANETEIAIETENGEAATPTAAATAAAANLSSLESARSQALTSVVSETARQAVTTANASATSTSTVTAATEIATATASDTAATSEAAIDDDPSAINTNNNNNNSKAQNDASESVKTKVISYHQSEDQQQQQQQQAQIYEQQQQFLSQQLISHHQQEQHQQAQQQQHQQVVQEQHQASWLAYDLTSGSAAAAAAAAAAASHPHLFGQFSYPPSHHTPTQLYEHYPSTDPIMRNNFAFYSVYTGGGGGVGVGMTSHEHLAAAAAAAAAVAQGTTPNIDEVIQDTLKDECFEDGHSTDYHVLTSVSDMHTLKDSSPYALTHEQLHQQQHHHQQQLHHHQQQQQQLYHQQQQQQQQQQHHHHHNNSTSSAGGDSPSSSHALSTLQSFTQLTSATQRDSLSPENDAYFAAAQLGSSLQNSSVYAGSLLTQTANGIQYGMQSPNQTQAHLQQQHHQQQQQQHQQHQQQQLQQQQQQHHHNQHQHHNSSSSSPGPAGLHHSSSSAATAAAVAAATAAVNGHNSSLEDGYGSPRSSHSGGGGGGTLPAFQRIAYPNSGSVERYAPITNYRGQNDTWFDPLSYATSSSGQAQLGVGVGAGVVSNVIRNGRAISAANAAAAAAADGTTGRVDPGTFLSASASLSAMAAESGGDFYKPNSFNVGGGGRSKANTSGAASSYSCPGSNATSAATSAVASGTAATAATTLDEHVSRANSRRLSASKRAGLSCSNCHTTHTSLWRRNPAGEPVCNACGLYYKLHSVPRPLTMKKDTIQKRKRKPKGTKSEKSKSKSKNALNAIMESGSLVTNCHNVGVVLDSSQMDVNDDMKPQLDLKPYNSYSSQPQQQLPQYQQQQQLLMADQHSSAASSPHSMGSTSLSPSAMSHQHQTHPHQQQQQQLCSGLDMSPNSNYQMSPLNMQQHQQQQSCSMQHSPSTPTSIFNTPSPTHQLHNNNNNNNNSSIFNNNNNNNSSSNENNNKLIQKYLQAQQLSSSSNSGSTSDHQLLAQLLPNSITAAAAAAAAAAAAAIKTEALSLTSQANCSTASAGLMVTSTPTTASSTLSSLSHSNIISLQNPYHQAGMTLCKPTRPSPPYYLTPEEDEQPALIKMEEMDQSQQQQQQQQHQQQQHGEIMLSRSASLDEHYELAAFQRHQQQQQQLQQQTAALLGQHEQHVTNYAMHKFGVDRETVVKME

B1: GATA transcription factor Serpent (Srp), yeast two-hybrid prey (protein, UniProt P52172 1-1264)
chain: MTKTTKPKEKAAAGGAVIGSGSGLGSVTKAGGGSLLSNAADSKIRTAKSNNNKRQAGRAATALAATTTASALAATTTAGATGSNAAANETEIAIETENGEAATPTAAATAAAANLSSLESARSQALTSVVSETARQAVTTANASATSTSTVTAATEIATATASDTAATSEAAIDDDPSAINTNNNNNNSKAQNDASESVKTKVISYHQSEDQQQQQQQQAQIYEQQQQFLSQQLISHHQQEQHQQAQQQQHQQVVQEQHQASWLAYDLTSGSAAAAAAAAAAASHPHLFGQFSYPPSHHTPTQLYEHYPSTDPIMRNNFAFYSVYTGGGGGVGVGMTSHEHLAAAAAAAAAVAQGTTPNIDEVIQDTLKDECFEDGHSTDYHVLTSVSDMHTLKDSSPYALTHEQLHQQQHHHQQQLHHHQQQQQQLYHQQQQQQQQQQHHHHHNNSTSSAGGDSPSSSHALSTLQSFTQLTSATQRDSLSPENDAYFAAAQLGSSLQNSSVYAGSLLTQTANGIQYGMQSPNQTQAHLQQQHHQQQQQQHQQHQQQQLQQQQQQHHHNQHQHHNSSSSSPGPAGLHHSSSSAATAAAVAAATAAVNGHNSSLEDGYGSPRSSHSGGGGGGTLPAFQRIAYPNSGSVERYAPITNYRGQNDTWFDPLSYATSSSGQAQLGVGVGAGVVSNVIRNGRAISAANAAAAAAADGTTGRVDPGTFLSASASLSAMAAESGGDFYKPNSFNVGGGGRSKANTSGAASSYSCPGSNATSAATSAVASGTAATAATTLDEHVSRANSRRLSASKRAGLSCSNCHTTHTSLWRRNPAGEPVCNACGLYYKLHSVPRPLTMKKDTIQKRKRKPKGTKSEKSKSKSKNALNAIMESGSLVTNCHNVGVVLDSSQMDVNDDMKPQLDLKPYNSYSSQPQQQLPQYQQQQQLLMADQHSSAASSPHSMGSTSLSPSAMSHQHQTHPHQQQQQQLCSGLDMSPNSNYQMSPLNMQQHQQQQSCSMQHSPSTPTSIFNTPSPTHQLHNNNNNNNNSSIFNNNNNNNSSSNENNNKLIQKYLQAQQLSSSSNSGSTSDHQLLAQLLPNSITAAAAAAAAAAAAAIKTEALSLTSQANCSTASAGLMVTSTPTTASSTLSSLSHSNIISLQNPYHQAGMTLCKPTRPSPPYYLTPEEDEQPALIKMEEMDQSQQQQQQQQHQQQQHGEIMLSRSASLDEHYELAAFQRHQQQQQQLQQQTAALLGQHEQHVTNYAMHKFGVDRETVVKME
In the case of B1, the binding [1] is reported as “binds”.

B2: HA-Srp (protein, UniProt P52172 1-1264)
chain: MTKTTKPKEKAAAGGAVIGSGSGLGSVTKAGGGSLLSNAADSKIRTAKSNNNKRQAGRAATALAATTTASALAATTTAGATGSNAAANETEIAIETENGEAATPTAAATAAAANLSSLESARSQALTSVVSETARQAVTTANASATSTSTVTAATEIATATASDTAATSEAAIDDDPSAINTNNNNNNSKAQNDASESVKTKVISYHQSEDQQQQQQQQAQIYEQQQQFLSQQLISHHQQEQHQQAQQQQHQQVVQEQHQASWLAYDLTSGSAAAAAAAAAAASHPHLFGQFSYPPSHHTPTQLYEHYPSTDPIMRNNFAFYSVYTGGGGGVGVGMTSHEHLAAAAAAAAAVAQGTTPNIDEVIQDTLKDECFEDGHSTDYHVLTSVSDMHTLKDSSPYALTHEQLHQQQHHHQQQLHHHQQQQQQLYHQQQQQQQQQQHHHHHNNSTSSAGGDSPSSSHALSTLQSFTQLTSATQRDSLSPENDAYFAAAQLGSSLQNSSVYAGSLLTQTANGIQYGMQSPNQTQAHLQQQHHQQQQQQHQQHQQQQLQQQQQQHHHNQHQHHNSSSSSPGPAGLHHSSSSAATAAAVAAATAAVNGHNSSLEDGYGSPRSSHSGGGGGGTLPAFQRIAYPNSGSVERYAPITNYRGQNDTWFDPLSYATSSSGQAQLGVGVGAGVVSNVIRNGRAISAANAAAAAAADGTTGRVDPGTFLSASASLSAMAAESGGDFYKPNSFNVGGGGRSKANTSGAASSYSCPGSNATSAATSAVASGTAATAATTLDEHVSRANSRRLSASKRAGLSCSNCHTTHTSLWRRNPAGEPVCNACGLYYKLHSVPRPLTMKKDTIQKRKRKPKGTKSEKSKSKSKNALNAIMESGSLVTNCHNVGVVLDSSQMDVNDDMKPQLDLKPYNSYSSQPQQQLPQYQQQQQLLMADQHSSAASSPHSMGSTSLSPSAMSHQHQTHPHQQQQQQLCSGLDMSPNSNYQMSPLNMQQHQQQQSCSMQHSPSTPTSIFNTPSPTHQLHNNNNNNNNSSIFNNNNNNNSSSNENNNKLIQKYLQAQQLSSSSNSGSTSDHQLLAQLLPNSITAAAAAAAAAAAAAIKTEALSLTSQANCSTASAGLMVTSTPTTASSTLSSLSHSNIISLQNPYHQAGMTLCKPTRPSPPYYLTPEEDEQPALIKMEEMDQSQQQQQQQQHQQQQHGEIMLSRSASLDEHYELAAFQRHQQQQQQLQQQTAALLGQHEQHVTNYAMHKFGVDRETVVKME
B2 was tested, and the binding [2] was “binds”.

B3: Bfc-6XHis (protein, UniProt Q9W0I5 1-251)
chain: MRMDKSEKRSNLADNFLYMLEFMVDDLLITRPNLCAPEEYPTCTEITFRSVFLNIRDRENGSCVNPCSPKCGKCTLFTLESPITDEDVMHIHVYKKRTESCKFLLGLTELPMKPIFDRVKKEFYSQNINWESNVESHLSRMPKLRGPCKKANDCVCYERNRERREQWCPTSELTKRMLPLFNLCKMQTGNIVLILRLVCNGPSVVSSFPVQRPVCKDPCNCCCPCPPTWPAPCSSPFDPCDPCKTVPAKKT
With B3 the binding [3] was “binds”.
